# Test system: Prolactin Secretion
# Experiment: Prolactin Secretion (in-vitro)
# Format: cell-based
# Conditions: Rat, read-out: Prolactin Secretion ID50
compound,measurement,value
"O=C(CCCN1CCC(O)(c2ccc(Cl)cc2)CC1)c1ccc(F)cc1 [Haloperidol, haloperidol, reference compound]",IC50,27 nM

# From patent US4471116A, “Substituted (10H-phenothiazin-10-L)-propyl-1-piperazines” (Hoffmann-La Roche Inc., priority 1982, dated 1984)
